Experimental data taken from US7067619B2, “Integrin-binding peptides” (La Jolla Cancer Research Foundation, priority 1993, dated 2006).
Where two headings read alike, the source gives them in different places. For at least one compound, name, drawing or mass did not settle the structure. Bridge positions count the residues as written; N and C are the ends. Peptide text beside a SMILES is read from it.

Chains of the proteins cited; added tags and fusions are not shown. Residues count along the entry.
UniProt P06756, 891-1048 partner limits assumed: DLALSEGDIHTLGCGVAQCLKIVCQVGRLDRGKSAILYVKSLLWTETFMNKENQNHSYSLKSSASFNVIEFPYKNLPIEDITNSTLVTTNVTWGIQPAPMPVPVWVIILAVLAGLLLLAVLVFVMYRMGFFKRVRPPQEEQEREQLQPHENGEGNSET
UniProt P06756, 31-889 limits assumed: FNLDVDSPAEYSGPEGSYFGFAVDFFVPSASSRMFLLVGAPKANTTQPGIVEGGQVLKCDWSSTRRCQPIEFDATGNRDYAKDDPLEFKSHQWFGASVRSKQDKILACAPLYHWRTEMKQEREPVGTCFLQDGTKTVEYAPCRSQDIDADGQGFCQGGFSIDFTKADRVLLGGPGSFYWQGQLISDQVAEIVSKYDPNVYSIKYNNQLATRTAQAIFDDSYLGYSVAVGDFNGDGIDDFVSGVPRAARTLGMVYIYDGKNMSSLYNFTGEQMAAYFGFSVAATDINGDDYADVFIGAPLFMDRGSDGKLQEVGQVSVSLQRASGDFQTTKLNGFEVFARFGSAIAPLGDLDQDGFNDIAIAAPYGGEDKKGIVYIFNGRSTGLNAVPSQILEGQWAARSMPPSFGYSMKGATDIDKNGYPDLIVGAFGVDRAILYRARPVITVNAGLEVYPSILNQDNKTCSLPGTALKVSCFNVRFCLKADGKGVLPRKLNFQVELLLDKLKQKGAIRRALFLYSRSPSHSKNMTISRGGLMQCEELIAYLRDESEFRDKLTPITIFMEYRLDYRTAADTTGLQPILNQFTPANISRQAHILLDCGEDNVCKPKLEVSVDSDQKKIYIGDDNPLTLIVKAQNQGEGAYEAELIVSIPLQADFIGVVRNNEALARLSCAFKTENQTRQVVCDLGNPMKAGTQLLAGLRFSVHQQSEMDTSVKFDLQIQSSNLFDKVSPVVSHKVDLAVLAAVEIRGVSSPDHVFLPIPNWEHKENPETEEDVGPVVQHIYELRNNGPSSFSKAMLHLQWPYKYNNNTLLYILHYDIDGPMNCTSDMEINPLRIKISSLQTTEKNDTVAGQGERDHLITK
UniProt P18084, 24-799: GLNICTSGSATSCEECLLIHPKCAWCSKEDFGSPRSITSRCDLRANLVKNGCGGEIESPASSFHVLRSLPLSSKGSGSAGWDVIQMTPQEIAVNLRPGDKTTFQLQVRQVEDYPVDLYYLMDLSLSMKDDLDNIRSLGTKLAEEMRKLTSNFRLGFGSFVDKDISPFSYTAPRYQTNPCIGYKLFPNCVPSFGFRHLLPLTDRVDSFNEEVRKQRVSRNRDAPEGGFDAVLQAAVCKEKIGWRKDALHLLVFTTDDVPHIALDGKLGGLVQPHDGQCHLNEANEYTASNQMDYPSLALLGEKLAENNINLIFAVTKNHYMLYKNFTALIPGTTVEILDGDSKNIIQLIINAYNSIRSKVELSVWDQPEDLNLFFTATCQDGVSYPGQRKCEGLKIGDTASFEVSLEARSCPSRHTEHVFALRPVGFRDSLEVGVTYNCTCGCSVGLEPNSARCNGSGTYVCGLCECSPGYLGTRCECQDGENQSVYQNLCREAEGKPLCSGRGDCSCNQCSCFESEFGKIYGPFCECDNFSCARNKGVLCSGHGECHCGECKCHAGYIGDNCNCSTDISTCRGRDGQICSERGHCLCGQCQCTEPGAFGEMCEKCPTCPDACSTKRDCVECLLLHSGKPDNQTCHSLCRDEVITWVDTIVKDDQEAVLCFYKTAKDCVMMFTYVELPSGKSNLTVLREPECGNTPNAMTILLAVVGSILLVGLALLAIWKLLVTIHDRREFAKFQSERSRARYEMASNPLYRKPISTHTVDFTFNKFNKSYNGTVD

Biological target: αvβ5 integrin (Homo sapiens, UniProt P06756+P18084)
Test: Inhibition of αvβ5-mediated cell attachment to vitronectin
Type: cell-based
Parameters: αvβ5-mediated attachment of HT-29 cells to vitronectin; endogenous in cells; host or cells: HT-29 cells; UCLA-P3 cells
Text: FIG. 12—αvβ5-mediated attachment of HT-29 cells to vitronectin.
Cell lines expressing different integrins were used to examine peptide inhibition of integrin function. A human melanoma cell line, C8161, a fibroblast cell line, WI-38, and an osteosarcoma cell line, MG-63 (described by Seftor et al., Canc. Res., 53:3411–3415 (1993); Vogel et al., J. Biol. Chem., 265:5934–5937 (1990); and Pytela et al. (1985), supra, respectively, each of which is incorporated herein by reference) attach to fibronectin through α5β1 integrin, as does B2/α27, a CHO cell line transfected with human α5. B2/C1, the control parental CHO line (Bauer et al., J. Cell. Biol. 116:477–487 (1992), which is incorporated herein by reference), attaches via […]. CHO cells C11 and NIH 3T3 cells express the endogenous Chinese hamster and mouse α5β1 integrins, respectively. The human melanoma cells, A375-M, attach to fibronectin through both α5β1 and α4β1 integrins (Mould et al., J. Biol. Chem. 265:4020–4024 (1990), which is incorporated herein by reference). […]
Cell lines expressing fibronectin-binding integrins were used to determine peptide activities against these integrins in the cell attachment assay described by Ruoslahti et al., Meth. […] Bound cells were quantitated by staining with 0.1% amido black. […]

C[C@H](N)C(=O)N[C@H]1CSSC[C@@H](C(=O)NCC(=O)O)NC(=O)[C@H](Cc2ccccc2)NC(=O)[C@@H]2CSSC[C@H](NC(=O)[C@H](CC(=O)O)NC1=O)C(=O)N[C@@H](CCCNC(=N)N)C(=O)NCC(=O)N[C@@H](CC(=O)O)C(=O)N2 (H-ACDCRGDCFCG-OH; disulfide 2-10, 4-8)
IC50 (read-out: IC50 of inhibition of attachment of UCLA-P3 cells to vitronectin, UCLA-P3 cells): 0.6 µM | IC50 (read-out: IC50 of inhibition of αvβ5-mediated attachment of HT-29 cells to vitronectin, HT-29 cells, FIG. 12): 0.6 µM
